# In the supplement of paper PMC12889115:
# This is one part of the list. These are raw signals, not scaled to a control.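 In the initial screen, polymyxin B was used at a concentration that permeabilizes Salmonella's outer membrane but not its inner membrane. Maximum growth was set by DMSO wells with or without polymyxin B. Since plates varied, data were ranked per plate, and compounds giving the lowest OD600 advanced as hits.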
# Tested on: Salmonella enterica serovar Typhimurium SL1344
# Assay: bacterial growth OD600 after 18 h with compound and polymyxin B; higher = more bacterial growth (less inhibition)
# Settings: 50 µM, Mueller-Hinton broth
Compound,bacterial growth OD600 (polymyxin B 0.75 µg/mL),bacterial growth OD600 (polymyxin B 1 µg/mL)
Cc1ccccc1CC(C1CCN(C(=O)CSc2ccccc2)CC1)N(C)C(=O)Cn1cccn1 (stereo unspecified),0.665,
COc1ccc(CC2=NOC(CNC(=O)c3csc(Cc4ccccc4)n3)C2)cc1 (stereo unspecified),0.889,
CCN1CCN(C2(C(=O)NC(C)Cc3ccccn3)Cc3ccccc3C2)CC1 (stereo unspecified),0.831,
Cc1nc(C(C)NC(=O)c2cc(COc3cccc4cnccc34)on2)cs1 (stereo unspecified),,0.977
COc1ccc(C(=O)N2CCCC(Nc3ccc(C(C)C)cc3)C2)cc1F (stereo unspecified),,0.006
O=S(=O)(Cc1ccccc1)NCc1cccnc1Oc1ccccc1F,,0.741
CCC1CN(Cc2ccc(O)c(OC)c2)Cc2ccc(Cl)cc2O1 (stereo unspecified),0.633,
CN(C(=O)C1CC1)C(Cc1ccc(F)cc1F)C1CCN(C(=O)c2ccc(F)cc2Cl)CC1 (stereo unspecified),0.653,
O=C(c1ccc(NC2CCOC2)nc1)N1CCC(Cn2cccn2)CC1 (stereo unspecified),,0.954
O=C1CC(CNc2ccc(-c3nc(C4CC4)no3)cn2)CN1C1CCCC1 (stereo unspecified),0.769,
OCCC1CN(C2CCCC2)CCN1Cc1ccccc1F (stereo unspecified),,0.886
CC(C)Cc1cn[nH]c1C1CCCN(C(=O)Cc2ccc3c(c2)OCO3)C1 (stereo unspecified),0.811,
CN1CCCC2(CCN(C(=O)Cc3cccc4ccccc34)C2)C1=O (stereo unspecified),,0.919
Cc1cc(C)cc(-n2ncc3c2CCCC3NC(=O)Cc2cccnc2)c1 (stereo unspecified),,0.89
CN(Cc1cn(Cc2ccccc2)nc1-c1cc2ccccc2o1)CC1COCCO1 (stereo unspecified),,0.76
CC(C)c1ccc(NC2CCCN(C(=O)C[n+]3cc([O-])on3)C2)cc1 (stereo unspecified),,0.908

# 7 entries from above, ordered by SMILES length, rising:
Compound,bacterial growth OD600 (polymyxin B 0.75 µg/mL),bacterial growth OD600 (polymyxin B 1 µg/mL)
O=S(=O)(Cc1ccccc1)NCc1cccnc1Oc1ccccc1F,,0.741
CCC1CN(Cc2ccc(O)c(OC)c2)Cc2ccc(Cl)cc2O1 (stereo unspecified),0.633,
CN1CCCC2(CCN(C(=O)Cc3cccc4ccccc34)C2)C1=O (stereo unspecified),,0.919
COc1ccc(C(=O)N2CCCC(Nc3ccc(C(C)C)cc3)C2)cc1F (stereo unspecified),,0.006
Cc1nc(C(C)NC(=O)c2cc(COc3cccc4cnccc34)on2)cs1 (stereo unspecified),,0.977
CN(Cc1cn(Cc2ccccc2)nc1-c1cc2ccccc2o1)CC1COCCO1 (stereo unspecified),,0.76
CC(C)Cc1cn[nH]c1C1CCCN(C(=O)Cc2ccc3c(c2)OCO3)C1 (stereo unspecified),0.811,

# Next compounds

Compound,bacterial growth OD600 (polymyxin B 0.75 µg/mL),bacterial growth OD600 (polymyxin B 1 µg/mL)
COc1ccc(NC2CCCN(C(=O)c3ccccc3N3CCOCC3)C2)cc1OC (stereo unspecified),,0.881
CCOC(=O)N1CCN(Cc2ccc3c(c2)CN(C(=O)C2CC(=O)N(CCOC)C2)CCO3)CC1 (stereo unspecified),0.919,
O=C(c1ccc2c(c1)OCO2)N1CCCC(Nc2ccc(F)c(F)c2)C1 (stereo unspecified),,0.813
CSc1ccc(CC2(CCC(=O)N3CCCC(C(=O)CCc4ccccc4)C3)CCC(=O)N2)cc1 (stereo unspecified),0.008,
CC(C)Cc1ccc(CN2CCCC(NC(=O)CCc3cnccn3)C2)cc1 (stereo unspecified),,1.3
CC(NC(=O)c1ccc(OC2CCN(S(=O)(=O)N(C)C)CC2)cc1)c1nccs1 (stereo unspecified),,1.23
COCCN1C(=O)CC(CC(=O)N2CCCCC2c2nccs2)(c2ccccc2OC)C1=O (stereo unspecified),0.942,
COc1ccccc1CN1CC(C(=O)N2CCC(C(=O)c3ccccc3)CC2)CCC1=O (stereo unspecified),,0.913
C=CCN(CC=C)C(=O)c1cc(Cn2ccc3ccccc32)[nH]n1,,0.78
O=C(c1ccc2oc(CCc3ccccc3)nc2c1)N1CCCC1c1ccccn1 (stereo unspecified),,0.813
CCCn1cc(C(=O)N2CCOC(CCCC(C)C)C2)c(C)n1 (stereo unspecified),0.87,
CC(C)N(C)C(=O)C1CCC(=O)N(CCc2cccc(F)c2)C1 (stereo unspecified),,0.858
Cn1nccc1C(=O)N1CCCC(N2CCN(Cc3ccc4c(c3)OCO4)CC2)C1 (stereo unspecified),,0.838
COc1ccccc1CCNC(=O)Cc1ccc(N2CCC(NCC3COCCO3)CC2)cc1 (stereo unspecified),1.03,
CCOC(=O)C1(Cc2ccccc2F)CCCN(C(=O)CCN2CCCC2=O)C1 (stereo unspecified),,1
